Data: the supplement of paper PMC6445147
Values scatter widely in this assay.

B1: human tRNA-Pro; a variant is named by its letters at N, in order (parent)
chain: GGCTCGTTGGTCTAGNGGTATGATTCTCGCTTAGGGTGCGAGAGGTCCCGGGTTCNNATCCCGGACGAGCCC

Tests used:
[1] = variants of: B1; experiment: tRNA 3' processing efficiency (processed reads / all reads, maximum-likelihood estimate) (fraction); higher = more efficient 3' processing; conditions: HEK293T; construct: no Pol-II promoter ((-)CMV library)
[2] = variants of: B1; experiment: tRNA Pol-III promoter activity, log2 (circRNA frequency / plasmid DNA frequency) (log2 ratio); higher = stronger promoter activity; conditions: HEK293T; construct: no Pol-II promoter ((-)CMV library)
[3] = variants of: B1; experiment: tRNA 5' processing efficiency (processed reads / all reads, maximum-likelihood estimate) (fraction); higher = more efficient 5' processing; conditions: HEK293T; construct: CMV Pol-II promoter ((+)CMV library, decapped)

Row | Variant | tRNA 3' processing efficiency [1] | tRNA Pol-III promoter activity (log2) [2] | tRNA 5' processing efficiency [3]
1 | GAA A14G G15T T19A T59A | 0.6 | – | –
2 | ATA T59G | 0.21 | 3.28 | –
3 | GAA A14C G18C A58G T59A | 0.17 | – | –
4 | GAA A14C G15T T19A A58G T59G | 0.5 | – | –
5 | TAA A14G A20T T53A | 0.17 | – | –
6 | GTT A14C A58T | 0.25 | 3.93 | –
7 | GTT A14G | 0.25 | 1.42 | –
8 | GTT A14C | 0.3 | 4.5 | –
9 | GAA A14C G18A T53A T59G | 0.5 | – | –
10 | TTT G9A | 0.2 | 4.67 | –
11 | GAA A14G G15C T19G A58C T59C | 0.62 | – | –
12 | GTT G17C | 0.04 | 6.36 | –
13 | GTT G17T | 0.25 | 2.48 | –
14 | GTT G17A | 0.2 | 2.94 | –
15 | CAA A14C T19A A20T A58C | 0.25 | – | –
16 | CTT A14T | 0.25 | 4.94 | –
17 | TTC T19C | 0.17 | 5.62 | –
18 | CAA A14C T19A A20C A58G | 0.25 | – | –
19 | GAA A14C G51A | 0.29 | – | –
20 | GTT G15C T19A | 0.11 | 6.11 | –
21 | CTG A20T | 0.13 | 2.07 | –
22 | TTA T59G | 0.35 | 4.25 | –
23 | GTG A58T | 0.25 | 1.79 | –
24 | GTG A58G | 0.43 | 5.16 | –
25 | AAA A14C G18A A58G | 0.25 | – | –
26 | GTT C55A | 0.4 | 1.62 | –

Row | Variant | tRNA 3' processing efficiency [1] | tRNA Pol-III promoter activity (log2) [2] | tRNA 5' processing efficiency [3]
27 | GAA A14C T46A | 0.11 | – | –
28 | GTC T19G | 0.24 | 4.88 | –
29 | GTC T19A | 0.5 | 3.93 | –
30 | CAA A14C A20T A58T T59G | 0.4 | – | –
31 | AAA A14G A20T T59C | 0.2 | – | –
32 | GTC G15T | 0.1 | 4.46 | –
33 | GTC G15A | 0.25 | 2.86 | –
34 | TAA A14C G17A T19G T59G | 0.2 | – | –
35 | GTC G17C | 0.2 | 2.36 | –
36 | GTC G17T | 0.57 | 2.75 | 0.25
37 | GTG T59G | 0.25 | 4.34 | –
38 | GTG T59C | 0.06 | 6.2 | –
39 | GTG G9T | 0.14 | 3.75 | –
40 | GTT G9A | 0.25 | 2.22 | –
41 | GTT G9T | 0.2 | 2.55 | –
42 | GTT G15A G17C | 0.73 | 6.39 | –
43 | GTT G15A G17T | 0.2 | 4.03 | –
44 | ATG A14G | 0.22 | 8.45 | –
45 | CAA A14C A20T T53A | 0.29 | – | –
46 | TTG G15T T19G | 0.41 | 6.44 | –
47 | GAA A14C G18A T53C A58T | 0.25 | – | –
48 | GTT A58G T59C | 0.89 | 7.1 | –
49 | TTG A58T | 0.1 | 7.26 | –
50 | TTG A58C | 0.2 | 6.25 | –
51 | GTT T19G | 0.09 | 4.47 | –
52 | GTT T19A | 0.13 | 3.13 | –

Row | Variant | tRNA 3' processing efficiency [1] | tRNA Pol-III promoter activity (log2) [2] | tRNA 5' processing efficiency [3]
53 | GTT G9A T59G | 0.2 | 4.67 | –
54 | CTC A14T | 0.25 | 3.93 | –
55 | GTG G18T | 0.4 | 3.26 | –
56 | GTG G18A | 0.25 | 2.57 | –
57 | GTG | 0.21 | 3.09 | –
58 | GTT | 0.36 | 2.87 | –
59 | GTC | 0.43 | 1.09 | –
60 | ATC A58C | 0.06 | 5.71 | –
61 | GTT A14T T59C | 0.25 | 4.45 | –
62 | GAA A14C T19C T53A A58G | 0.43 | – | –
63 | GTG G9A A20T A58T | 0.67 | 6.1 | –
64 | GTG A20G A58T | 0.17 | 4.93 | –
65 | GAA A14G G15T A20T T59C | 0.11 | – | –
66 | TTC A20T | 0.75 | 6.94 | –
67 | GAA A14C T19A T53A | 0.5 | – | –
68 | GTC T59C | 0.14 | 3.57 | –
69 | GTC A14G | 0.2 | 3.09 | –
70 | GAA A14C T19C A58G | 0.31 | – | –
71 | TAA A14G A20G T53C A58G | 0.57 | – | –
72 | TTG | 0.17 | 5.95 | –
73 | TTC | 0.02 | 9.06 | –
74 | TTT | 0.32 | 3.18 | –
75 | GTG A14G A58G | 0.25 | 3.93 | –
76 | GTG A14G A58T | 0.2 | 4.77 | –
77 | GTT T59C | 0.25 | 3.32 | –
78 | GAA A14C T53A A58C T59G | 0.4 | – | –

Row | Variant | tRNA 3' processing efficiency [1] | tRNA Pol-III promoter activity (log2) [2] | tRNA 5' processing efficiency [3]
79 | GTT T8A G15T | 0.62 | 5.03 | –
80 | GTT A14G A58G | 0.76 | 8.12 | –
81 | GTC T8G | 0.5 | 3.72 | –
82 | TAA A14C A20T A58T | 0.17 | – | –
83 | CAA A14C G15C T59C | 0.4 | – | –
84 | GTC G9A T54A | 0.5 | 4.3 | –
85 | GTC A14G T59G | 0.4 | 5.25 | –
86 | CAA A14C C55T A58G | 0.33 | – | –
87 | GAA A14C G15C A20C T59C | 0.17 | – | –
88 | CTG T19A | 0.25 | 5.93 | –
89 | GAA A14C G17C T53A A58G | 0.17 | – | –
90 | CAA A14C A58T T59G | 0.17 | – | –
91 | GAA A14C G50A | 0.44 | – | –
92 | GTT A58G | 0.46 | 3.28 | –
93 | GAA A14C G50A T53A T59C | 0.25 | – | –
94 | ATT | 0.31 | 2.96 | –
95 | ATG | 0.25 | 3.33 | –
96 | ATC | 0.33 | 6.61 | –
97 | GTT T53G | 0.25 | 5.03 | –
98 | GAA A14G G15A A58G T59G | 0.25 | – | –
99 | GAA A14C G15C T53A A58G | 0.4 | – | –
100 | GAA A14C T19C T54A | 0.25 | – | –
101 | GTG A14G | 0.17 | 2.3 | –
102 | GTG A14T | 0.62 | 1.94 | –
103 | CTG T19G A58G | 0.25 | 4.03 | –
104 | GTA T59G | 0.44 | 0.908 | –

Row | Variant | tRNA 3' processing efficiency [1] | tRNA Pol-III promoter activity (log2) [2] | tRNA 5' processing efficiency [3]
105 | CAA A14C T53A | 0.17 | – | 0.6
106 | GAA A14C T19A A20C T53A | 0.14 | – | –
107 | GTT G15C | 0.22 | 2.51 | –
108 | GTT G15A | 0.5 | 2.36 | –
109 | CTG T53G | 0.2 | 6.36 | –
110 | TTC T8A A58G | 0.22 | 6.53 | –
111 | GTC G15T G17T | 0.62 | 5.34 | –
112 | GTG G17T | 0.22 | 2.45 | –
113 | GTC G18A | 0.82 | 5.31 | –
114 | GTC A14T G15C | 0.55 | 7.39 | –
115 | GAA A14G G15T G50A | 0.29 | – | –
116 | GTG A20C | 0.33 | 6.62 | –
117 | GTG A20T | 0.67 | 3.36 | –
118 | CAA A14G A58C T59C | 0.39 | – | –
119 | TTT A20C | 0.34 | 8.28 | –
120 | ATG G15A | 0.25 | 3.23 | –
121 | TTG A14G | 0.51 | 7.62 | –
122 | CTT | 0.19 | 4.05 | –
123 | CTC | 0.25 | 5.16 | –
124 | GAA A14G G15C G18C A58T | 0.25 | – | –
125 | GTC G9A | 0.14 | 6.84 | –
126 | GTC G9T | 0.25 | 1.3 | –
127 | GAA A14G G15T G18A T19C T53G T59C | 0.2 | – | –
